Measured values reported in PubChem BioAssay AID1347076 (National Center for Advancing Translational Sciences (NCATS), 2019).
Hit rate of the full screen: of about 400,000 compounds, about 13,000 (3.2%) were called active. Inconclusive means that the source gave no clear call. Such entries were picked first, then a sample of the others. The call rests on the fitted dose curve; in most records, active means well fitted cell-killing curve with a large enough effect; inconclusive means small, poorly fitted or top-dose-only effect, or effect the other way; inactive means flat fitted curve, though single readings scatter. Where the call is inconclusive, the potency comes from a doubtful curve fit. A structure can be active in one record and inactive in another.

experiment: qHTS assay for MDR1-selective chemotherapeutics: Primary screen using the drug-selected MDR subline cells KB-V1; details: KB-V1 MDR cells viability, CellTiter-Glo, 72 h; activity change, negative = cytotoxicity: at 46.1 µM (top of the series); further: nearly all actives have a fitted effect of over 60% in size
How it was run: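 Luminescent ATP read-out (CellTiter-Glo, 10 min) measures survival of drug-selected KB-V1 MDR cells after 72 h, 37 degrees C compound exposure. Medium: phenol-red-free DMEM, 10% FBS. Values from fitted concentration-response curves.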
On the % scale 0 is the no-effect control and ±100 the full control effect; potency means the concentration at half of the fitted maximal effect.

| SMILES | activity change, negative = cytotoxicity | Potency |
| --- | --- | --- |
| CCCCC(=O)Nc1cccc(NC(=O)c2cccc(Br)c2)c1 | inactive: 18.7% |  |
| Cc1cc(C)c(NC(=O)c2ccccc2C(=O)c2ccccc2)c(C)c1 | inactive: -16.2% |  |
| Cc1cccc(OCCSc2nnc(-c3ccoc3C)n2C)c1 |  | active: 18.4 µM |
| Cn1c(=O)c2cc(NC(=O)Nc3cccnc3)ccc2n1-c1ccc(C(C)(C)C)cc1 | inactive: 2.62% |  |
| Cc1cc(NC2=CC(=O)C(=O)c3ccccc32)no1 |  | active: 18.4 µM |
| CC(=O)c1ccc(OC2(C)CCN(Cc3ccc4ccccc4c3)C2)cc1 (stereo not given) | inactive: -15.2% |  |
| Cc1cc(C)c2nc(NC(=O)C3CC(=O)N(Cc4ccco4)C3)sc2c1 (stereo not given) |  | inconclusive: 14.6 µM [cytotoxic, partial curve] |
| COc1ccc(N(CC(=O)NCC2CCCO2)S(=O)(=O)c2ccccc2)cc1OC (stereo not given) |  | inconclusive: 23.1 µM [rising, single point] |
| CCc1noc(C)c1C(=O)OC(C)C(=O)c1c(C)[nH]c2ccccc12 (stereo not given) |  | inconclusive: 32.6 µM [cytotoxic, single point] |
| COc1ccccc1NC(=O)CNC(c1ccccc1)c1ccccc1 | inactive: 30.2% |  |
| CCC1CCCCN1c1nc(-c2ccncc2)nc2ccccc12 (stereo not given) |  | inconclusive: 25.9 µM [cytotoxic, partial curve, poor fit] |
| COc1ccc(C(NC(=O)c2cccnc2)c2cc(Cl)c3cccnc3c2O)cc1OC (stereo not given) |  | active: 6.51 µM |
| COC(=O)C1=CN(Cc2cccs2)C=C(C(=O)OC)C1c1cccc(Cl)c1 |  | inconclusive: 8.2 µM [cytotoxic, partial curve] |
| COc1ccccc1CNC(=O)c1cc2ccc3ccc(C)[nH]c3c2n1 |  | inconclusive: 23.1 µM [cytotoxic, partial curve] |
| Cc1ccccc1CSCCNC(=O)CN(c1ccccc1)S(=O)(=O)N(C)C |  | active: 16.4 µM |
| O=[N+]([O-])c1ccc(/C=N/NC(=S)Nc2ccccc2)o1 |  | inconclusive: 0.461 µM [rising, full curve] |
| Cc1coc2c(C)c3oc(=O)c(CC(=O)N[C@@H](CC(C)C)C(=O)O)c(C)c3cc12 |  | inconclusive: 16.4 µM [rising, single point] |
| COC(=O)c1ccc(CSc2nnc(CS(=O)Cc3ccc(Br)cc3)n2-c2ccccc2)cc1 (stereo not given) |  | inconclusive: 14.6 µM [cytotoxic, partial curve] |
| CCn1nnc2cc(C(=O)Nc3cccc(C)c3C)ccc21 |  | inconclusive: 18.4 µM [cytotoxic, single point] |
| COc1cc(Cl)ccc1OCc1cc(C(=O)N(C)C2CCOC2)no1 (stereo not given) | inactive: 0.441% |  |
| O=C(CCS(=O)(=O)c1ccccc1)Nc1nnc(C(F)(F)F)s1 |  | inconclusive: 23.1 µM [cytotoxic, single point] |
| CC(C)N(C(=O)CSc1nnc(NC(=O)c2cccs2)s1)C(C)C |  | active: 23.1 µM |
| Cc1ccc(Cl)cc1NC(=O)C(=O)N/N=C/c1ccc2c(c1)OCO2 | inactive: 16.5% |  |
| Cc1[nH]c2ccccc2c1C(=O)COC(=O)Cn1c(C)nc2ccccc21 |  | inconclusive: 29.1 µM [rising, single point] |
| Cc1ccccc1Nc1scc(-c2ccc(Br)cc2)[n+]1-c1ccccc1C |  | inconclusive: 3.26 µM [cytotoxic, partial curve] |

| SMILES | activity change, negative = cytotoxicity | Potency |
| --- | --- | --- |
| Nc1c(C(=O)Nc2ccccc2)sc2nc(-c3ccco3)ccc12 |  | inconclusive: 29.1 µM [cytotoxic, single point] |
| Fc1ccc(NC(=S)Nc2ccccc2OC(F)F)cc1Cl |  | active: 16.4 µM |
| Cc1ccc(-n2cccc2C(=O)NS(=O)(=O)c2ccc(C)cc2)cc1 | inactive: 21.7% |  |
| CCCCN(C(=O)C1CSC2(C)CCC(=O)N12)c1c(N)n(Cc2ccccc2)c(=O)[nH]c1=O (stereo not given) | inactive: 6.47% |  |
| COc1ccc(CNC(=O)c2cc(-c3ccncc3)nc3c(C)cc(C)cc23)cc1OC |  | active: 23.1 µM |
| CC1(C(=O)NCC2CC2)Cc2c(-c3cccc(C(N)=O)c3)ccnc2O1 (stereo not given) |  | inconclusive: 8.2 µM [rising, partial curve, poor fit] |
| CSc1nnc(-c2sccc2OCc2ccc(C)cc2)n1C |  | active: 18.4 µM |
| O=C1CN(C(=O)CSc2nnc(C3CC3)n2-c2ccccc2)c2ccccc2N1 |  | inconclusive: 3.66 µM [rising, single point] |
| COc1cccc(/C=N/NC(=O)c2cc(-c3ccccn3)nc3ccccc23)c1O |  | inconclusive: 20.6 µM [cytotoxic, partial curve, poor fit] |
| COCOc1cccc(CN2CCC2(C)C(=O)Nc2ccc(C)cc2)c1 (stereo not given) | inactive: 0% |  |
| COc1ccc(-c2noc(CSc3nnc(-c4ccccc4)n3C)n2)cc1 |  | active: 14.6 µM |
| Fc1ccc(C2=CC(c3ccc(Br)o3)n3ncnc3N2)cc1 (stereo not given) | inactive: -3.98% |  |
| O=C(NCC1CCCO1)c1ccc(NC(=O)c2ccc(Br)cc2)cc1 (stereo not given) |  | inconclusive: 23.1 µM [cytotoxic, single point] |
| CCNc1nc(CN2CCOCC2)nc2sc3c(c12)CCC3 | inactive: -4.74% |  |
| O=C(c1sc2ccccc2c1Cl)N(Cc1ccccc1)C1CCS(=O)(=O)C1 (stereo not given) |  | active: 20.6 µM |
| CCn1c(CNC(=O)c2ccco2)nnc1SCC(=O)Nc1cc(C)c(C)cc1Br |  | inconclusive: 23.1 µM [cytotoxic, single point] |
| O=C1c2ccccc2[C@@H]2C[C@@H](O)[C@H](Nc3ccccc3-c3ccccc3)CCN12 | inactive: 0.0002% |  |
| COc1cc(C(=O)NNC(=O)c2ccc3ccccc3n2)cc(OC)c1OC | inactive: -51.5% |  |
| CCCCOC(=O)c1cc(Cl)c(O)c(OC)c1 |  | inconclusive: 29.1 µM [rising, single point] |
| c1ccc(CSc2ccc3nnc(-c4cccnc4)n3n2)cc1 |  | active: 18.4 µM |
| N#Cc1c(-c2ccco2)cc(C2CC2)nc1SCC(=O)c1ccccc1 |  | inconclusive: 2.59 µM [cytotoxic, partial curve, poor fit] |
| COc1ccc(N2CCN(Cc3cc4c(cc3O)CCC4)CC2)cc1 |  | inconclusive: 20.6 µM [cytotoxic, partial curve] |
| CCN(CC)c1ccc2nc3c4ccccc4c(=O)cc-3oc2c1 | inactive: 12.7% |  |
| Cc1cccc(OCC(=O)Nc2ccccc2C(=O)OCc2cc(=O)n3nc(C4CC4)sc3n2)c1 | inactive: 0% |  |
| Cc1ccsc1C(C(=O)NC1CCCCC1)N(C(=O)Cc1cccs1)C1CC1 (stereo not given) |  | inconclusive: 3.26 µM [cytotoxic, full curve] |

| SMILES | activity change, negative = cytotoxicity | Potency |
| --- | --- | --- |
| Cc1cc(C)n2nc(SCc3nnc(SCCCCl)o3)nc2n1 |  | inconclusive: 16.4 µM [cytotoxic, partial curve] |
| O=C(OCC(=O)N1CCc2ccccc21)c1ccncc1 |  | inconclusive: 5.17 µM [cytotoxic, partial curve] |
| O=S(=O)(NCc1ccccc1)c1cnc[nH]1 |  | inconclusive: 29.1 µM [rising, single point] |
| Oc1ccc(C(=S)N2CCCCC2)cc1Cl |  | active: 18.4 µM |
| CCOCCCNC(=O)C(c1ccccc1)N(Cc1cccs1)C(=O)c1ccccc1O (stereo not given) |  | inconclusive: 18.4 µM [cytotoxic, partial curve] |
| Cc1cccc(-n2cnc3cc(C(=O)NC4CCCCCC4)ccc32)c1 |  | inconclusive: 29.1 µM [cytotoxic, single point] |
| CCOc1ccc(NC(=O)c2ccc(-c3csc(C)n3)cc2)cc1 | inactive: 1.5% |  |
| Cc1cccc(N2CCN(c3nc4ccccc4c4nc(-c5cccnc5)nn34)CC2)c1C |  | inconclusive: 25.9 µM [rising, single point] |
| NC(=O)CSc1nnc(-c2ccc3c(c2)OCO3)o1 | inactive: -1.66% |  |
| CCc1nn(C(CC)C(=O)NCc2cccc(OC)c2OC)c(=O)c2cc3occc3n12 (stereo not given) | inactive: -1.82% |  |
| CC(=O)Oc1ccc(-c2cccc(C(=O)N(C)c3ccc(O)cc3)c2)cc1 | inactive: -12.7% |  |
| O=S(=O)(Nc1cccc(-c2cn3c(n2)SCC3)c1)c1ccc(F)cc1F |  | inconclusive: 18.4 µM [cytotoxic, partial curve, poor fit] |
| CCc1cccc(N2C(=O)N(Cc3c(F)cccc3Cl)c3ccccc3S2(=O)=O)c1 |  | inconclusive: 5.8 µM [cytotoxic, full curve] |
| CCn1cc(C(=O)Nc2ccc(C(C)C)cc2)c2cc(OC)c(OC)cc2c1=O |  | inconclusive: 29.1 µM [cytotoxic, single point] |
| O=C1CC(C(=O)O)S/C(=N\N=C\c2ccc(Br)cc2)N1 (stereo not given) |  | inconclusive: 29.1 µM [rising, single point] |
| CCc1cnc2c(c1SCCC(C)C)c(=O)n(C)c(=O)n2C | inactive: 4.52% |  |
| CCCc1c(-c2ccc(F)cc2F)ncn1Cc1cccc(-c2ccccc2)c1 |  | inconclusive: 20.6 µM [cytotoxic, single point] |
| CCOC(=O)c1ccc(NC(=O)c2c(NCc3cc(OC)ccc3OC)sc3c2CCC3)cc1 | inactive: 0% |  |
| Cc1cc(C)c(C#N)c(SCc2nnc(-c3ccccc3[N+](=O)[O-])o2)n1 |  | inconclusive: 32.6 µM [rising, single point] |
| O=C(c1ccc2c(=O)n(Cc3ccco3)c(=S)[nH]c2c1)N1CCN(Cc2ccccc2)CC1 |  | active: 20.6 µM |
| O=C1NC[C@H](CCCCN2C[C@H](Cc3ccc(O)cc3)N(CCc3ccccc3)C(=O)C2=O)N(CC2CCCCC2)C1=O | inactive: 0% |  |
| O=C(C=Cc1ccccc1O)c1ccccc1O |  | inconclusive: 29.1 µM [cytotoxic, single point] |
| CCn1c(=O)cc(SCC(=O)NCc2ccc(C)cc2)c2ccccc21 |  | inconclusive: 18.4 µM [cytotoxic, single point] |
| C=Cc1ccc(Cn2c(=O)n(CC3CCC(C(=O)NC(C)C)CC3)c(=O)c3sccc32)cc1 (stereo not given) | inactive: -2.28% |  |
| CCOC(=O)c1nc2c(=O)n(C)c(=O)n(C)c2n(C)c1=O |  | inconclusive: 6.51 µM [rising, partial curve, poor fit] |

Some of the entries so far, tab-delimited.
SMILES	activity change, negative = cytotoxicity	Potency
CCc1cccc(N2C(=O)N(Cc3c(F)cccc3Cl)c3ccccc3S2(=O)=O)c1		inconclusive: 5.8 µM [cytotoxic, full curve]
CCCc1c(-c2ccc(F)cc2F)ncn1Cc1cccc(-c2ccccc2)c1		inconclusive: 20.6 µM [cytotoxic, single point]
O=C(C=Cc1ccccc1O)c1ccccc1O		inconclusive: 29.1 µM [cytotoxic, single point]
CCn1c(=O)cc(SCC(=O)NCc2ccc(C)cc2)c2ccccc21		inconclusive: 18.4 µM [cytotoxic, single point]
